Among the data in publication doi:10.1101/2022.09.29.510132 are binding values, retold here.

Amino acid sequences for entries named in this document (tags omitted). A change or cut given only in a name is not applied to a line headed by its entry.
UniProt Q9UHD9: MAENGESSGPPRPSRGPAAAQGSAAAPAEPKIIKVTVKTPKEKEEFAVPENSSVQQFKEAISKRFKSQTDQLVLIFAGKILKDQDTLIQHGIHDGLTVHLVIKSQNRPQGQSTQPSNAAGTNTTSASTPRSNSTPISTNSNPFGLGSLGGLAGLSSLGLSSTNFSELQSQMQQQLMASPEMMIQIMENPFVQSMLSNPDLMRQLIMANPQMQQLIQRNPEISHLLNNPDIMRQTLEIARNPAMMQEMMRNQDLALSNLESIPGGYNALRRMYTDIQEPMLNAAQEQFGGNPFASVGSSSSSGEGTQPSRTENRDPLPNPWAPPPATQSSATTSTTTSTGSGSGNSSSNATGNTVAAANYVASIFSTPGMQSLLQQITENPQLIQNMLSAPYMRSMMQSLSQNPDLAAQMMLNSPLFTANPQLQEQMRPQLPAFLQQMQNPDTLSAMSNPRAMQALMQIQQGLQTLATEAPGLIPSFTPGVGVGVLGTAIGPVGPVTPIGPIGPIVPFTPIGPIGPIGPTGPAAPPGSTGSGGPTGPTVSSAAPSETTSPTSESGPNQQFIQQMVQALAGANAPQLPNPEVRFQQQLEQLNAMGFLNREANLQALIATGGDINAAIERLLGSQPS
UniProt Q9UMX0: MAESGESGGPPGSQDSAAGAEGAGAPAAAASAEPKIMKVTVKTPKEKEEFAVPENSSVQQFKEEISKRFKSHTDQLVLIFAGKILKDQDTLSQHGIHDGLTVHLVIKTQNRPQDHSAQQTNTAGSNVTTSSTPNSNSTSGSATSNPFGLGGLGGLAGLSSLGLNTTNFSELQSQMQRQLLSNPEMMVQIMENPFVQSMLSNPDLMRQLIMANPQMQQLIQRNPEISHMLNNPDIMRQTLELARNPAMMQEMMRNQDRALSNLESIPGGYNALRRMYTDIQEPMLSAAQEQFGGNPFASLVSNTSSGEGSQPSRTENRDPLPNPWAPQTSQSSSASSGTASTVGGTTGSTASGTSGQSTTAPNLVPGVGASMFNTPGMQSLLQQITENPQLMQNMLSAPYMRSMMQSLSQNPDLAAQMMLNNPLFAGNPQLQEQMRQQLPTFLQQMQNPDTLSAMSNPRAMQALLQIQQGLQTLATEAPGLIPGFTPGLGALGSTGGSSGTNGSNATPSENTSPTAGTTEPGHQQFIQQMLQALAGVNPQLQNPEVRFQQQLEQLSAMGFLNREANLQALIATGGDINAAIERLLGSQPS
UniProt P55036: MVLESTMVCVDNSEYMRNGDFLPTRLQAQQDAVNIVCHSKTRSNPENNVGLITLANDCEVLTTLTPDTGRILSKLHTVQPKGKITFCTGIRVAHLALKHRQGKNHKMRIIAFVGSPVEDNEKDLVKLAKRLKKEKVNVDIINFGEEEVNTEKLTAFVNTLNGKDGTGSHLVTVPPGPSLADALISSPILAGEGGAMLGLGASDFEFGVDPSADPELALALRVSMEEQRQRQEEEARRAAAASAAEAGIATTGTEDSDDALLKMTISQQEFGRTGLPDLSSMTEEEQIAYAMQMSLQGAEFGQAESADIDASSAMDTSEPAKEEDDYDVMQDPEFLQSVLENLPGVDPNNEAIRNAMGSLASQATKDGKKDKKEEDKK

The target of assay [1] is UBQLN2 (human (endogenous in HCT116)) (UniProt Q9UHD9). As to the kind of experiment: co-IP.
Assay [2] concerns the target UBQLN1 (human (endogenous in HCT116)) (UniProt Q9UMX0). As to the kind of experiment: co-IP.

These are yes or no findings as the source states them, for the method shown. Binding seen in cells or lysates may run through a third protein. Binding calls can cover weak binding; strength is not graded here.

Take “hRpn10 lacking the RAZUL domain (from UniProt P55036)”: the binding entry in assay [1] and in assay [2] was “binds” in each case.
